For at least one compound, name, drawing or mass did not settle the structure.
System: mouse mammary tumor virus (MMTV) promoter
Assay type: cell-based
Conditions: FIG. 43
Description: NIH/3T3 fibroblast cells (ATCC number CRL 1658) were used for transfection of plasmids containing the mouse mammary tumor virus (MMTV) promoter linked to firefly luciferase coding sequences (see below). Cells were propagated in Dulbecco's modified Eagle's medium (DMEM) obtained from Gibco, Grand Island, N.Y. and supplemented with 10% FCS. For high-throughput (HTP) screening, transfected NIH/3T3 clones were transferred to serum free defined medium consisting of Iscove's modified Eagle's medium (IMEM) and Ham's F12 medium (1:1) supplemented with growth factors, hormones and nutrients as described previously (43). […]
pMluci (FIG. 3) and pSV2Neo, an antibiotic resistance plasmid (34), were co-transfected into NIH/3T3 mouse fibroblast cells using the calcium phosphate precipitation method (15) with a commercially available kit (Pharmacia, Piscataway N.J.). […] Once sufficient cell numbers were obtained, clones were analyzed based on several criteria: constitutive luciferase production, induction of luciferase expression by dexamethasone (1 μm, Sigma, St. Louis, Mo.), satisfactory attachment to microtiter plates used in the high-throughput screen (see Section G) and acceptable standard deviation in multiple luciferase expression assays (see below for assay protocol). […]

C[C@@H]1C[C@H]2[C@@H]3CCC4=CC(=O)C=C[C@]4(C)[C@@]3(F)[C@@H](O)C[C@]2(C)[C@@]1(O)C(=O)CO [dexamethasone, reference compound]
effect of steroids on luciferase expression in the MMTV reporter cell line M10: stimulated the MMTV promoter
